According to PubChem BioAssay AID200 (DTP/NCI, 2004):
The list shows only some results of the screen, not a fair sample: it is rich in T/C values a quarter to a half above the control, in often repeated tests (any T/C) and in doses without a T/C. Further doses and runs are listed elsewhere. T/C is the treated group as % of the vehicle group. Some doses have a count of surviving animals in place of a T/C: the source holds a T/C of zero for them, seemingly a mark for toxic or unscored doses. Some survivor counts are full or nearly so, which does not show that the dose was tolerated: the source hardly ever lists a survival T/C far under the control, and the zero likely stands for such cases as well. Counts of survivors are from the toxicity check (mostly the fifth day) where no day follows; animals may have died later. Schedules are NCI's codes, taken here to give the interval after Q, in days (D) or hours (H), and the number of doses after X. Some entries were tested several times; their values stand side by side, smallest first. Where survival is the endpoint, this PubChem deposit counts one and a half times the control or more as active, and values a quarter to a half above the control carry no call in these data; other NCI protocols may use other cut-offs. Some T/C values carry the count of animals alive at the toxicity check (mostly the fifth day); without a count, all were alive then.

Test system: B6C3F1 mice, B16 melanoma ip, median survival T/C
Assay: NCI In Vivo Anticancer Drug Screen. Data for tumor model B16 Melanoma (intraperitoneal) in B6C3F1 mice
Settings: T/C endpoint: median survival time, higher T/C = longer survival
Method in brief: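 Tumor-bearing mice received test compound; a separate group got vehicle only. Survival was then compared, with results reported as treated over control.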

[1] = dose: 400.0 mg/kg/injection, schedule: Q01DX009 (ip), vehicle: water
[2] = dose: 800.0 mg/kg/injection, schedule: Q01DX009 (ip), vehicle: water
[3] = dose: 200.0 mg/kg/injection, schedule: Q01DX009 (ip), vehicle: saline
[4] = dose: 400.0 mg/kg/injection, schedule: Q01DX009 (ip), vehicle: saline
[5] = dose: 24.0 mg/kg/injection, schedule: Q01DX009 (ip), vehicle: distilled water + Tween-80
[6] = dose: 400.0 mg/kg/injection, schedule: Q01DX009 (ip), vehicle: saline with Tween-80
[7] = dose: 100.0 mg/kg/injection, schedule: Q01DX009 (ip), vehicle: saline with Tween-80

Q: Which survivor count (dose: 200.0 mg/kg/injection, schedule: Q01DX001 (ip), vehicle: water) does the source give for `COc1cccc2c1C(=O)c1c(O)c3c(c(O)c1C2=O)C[C@@](O)(/C(C)=N/NC(N)=S)C[C@@H]3OC1CC(N)C(O)C(C)O1` (some centres not stated) here?
A: 10 of 10

Q: `C=C(C)[C@@H]1CC[C@]2(C(=O)OC)CC[C@]3(C)[C@H](CC[C@@H]4[C@@]5(C)CC[C@H](O)C(C)(C)[C@@H]5CC[C@]43C)[C@@H]12` was tested. Which survivor count (dose: 100.0 mg/kg/injection, schedule: Q01DX009 (ip), vehicle: Klucel (hydroxypropylcellulose) (HPC)) did it give?
A: 10 of 10

Q: What about the survivor count (dose: 200.0 mg/kg/injection, schedule: Q01DX009 (ip), vehicle: Klucel (hydroxypropylcellulose) (HPC)) of the same compound?
A: 10 of 10

Q: For `O=NN(CCF)C(=O)N[C@H]1CCCC[C@H]1O`, which T/C (dose: 15.0 mg/kg/injection, schedule: Q01DX001 (ip), vehicle: saline) is on record?
A: 147 % of control

Q: What about the survivor count (dose: 120.0 mg/kg/injection, schedule: Q01DX001 (ip), vehicle: saline) of the same compound?
A: 5 of 10 on day 6

Q: How did the T/C (dose: 100.0 mg/kg/injection, schedule: Q01DX009 (ip), vehicle: water) turn out when `CC(C)[C@](O)(C(=O)OCC1=CCN2CC[C@@H](O)[C@@H]12)[C@H](C)O` was run?
A: 127 % of control

Q: What about the T/C (dose: 200.0 mg/kg/injection, schedule: Q01DX009 (ip), vehicle: water) of the same compound?
A: 133 % of control

Q: And the T/C [1]?
A: 128 [9 of 10 alive] and 144 % of control

Q: What about the survivor count [2] of the same compound?
A: 0 of 10 and 2 of 10

Q: Which results are given for `Nc1ncnc2c1ncn2C1OC(COP(=O)(O)O)C(O)C1O` (configuration not stated)?
A: T/C (dose: 800.0 mg/kg/injection, schedule: Q01DX009 (ip), vehicle: saline): 129 % of control; survivor count (dose: 1600.0 mg/kg/injection, schedule: Q01DX009 (ip), vehicle: saline): 10 of 10

Q: How did the survivor count (dose: 50.0 mg/kg/injection, schedule: Q01DX009 (ip), vehicle: saline) turn out when `Cc1ccc2nc(-c3ccc4nc(-c5ccc(N=Nc6ccc(-c7nc8ccc(-c9nc%10ccc(C)c(S(=O)(=O)O)c%10s9)cc8s7)cc6)cc5)sc4c3)sc2c1S(=O)(=O)O` was run?
A: 9 of 10

Q: What about the survivor count [3] of the same compound?
A: 9 of 10

Q: What about the survivor count [4] of the same compound?
A: 0 of 10

Q: Which T/C (dose: 3.0 mg/kg/injection, schedule: Q01DX009 (ip), vehicle: distilled water + Tween-80) does the source give for `COc1ccc2c(c1)CCn1c(C)c(COC(=O)NC(C)C)c(COC(=O)NC(C)C)c1-2` here?
A: 125 and 126 % of control

Q: And the T/C (dose: 6.0 mg/kg/injection, schedule: Q01DX009 (ip), vehicle: distilled water + Tween-80)?
A: 137, 141, 144 % of control

Q: What about the T/C (dose: 6.25 mg/kg/injection, schedule: Q01DX009 (ip), vehicle: distilled water + Tween-80) of the same compound?
A: 149 % of control

Q: What about the T/C (dose: 12.0 mg/kg/injection, schedule: Q01DX009 (ip), vehicle: distilled water + Tween-80) of the same compound?
A: 132 and 134 % of control

Q: And the T/C [5]?
A: 145 % of control

Q: What about the survivor count [5] of the same compound?
A: 10 of 10 and 9 of 9

Q: And the survivor count (dose: 25.0 mg/kg/injection, schedule: Q01DX009 (ip), vehicle: distilled water + Tween-80)?
A: 10 of 10

Q: What about the survivor count (dose: 48.0 mg/kg/injection, schedule: Q01DX009 (ip), vehicle: distilled water + Tween-80) of the same compound?
A: 5 of 10

Q: What about the survivor count (dose: 50.0 mg/kg/injection, schedule: Q01DX009 (ip), vehicle: distilled water + Tween-80) of the same compound?
A: 10 of 10

Q: Which survivor count [6] does the source give for `Cc1ccc(S(=O)(=O)NC(=S)S)cc1` here?
A: 10 of 10

Q: Which results are given for `O=C1C=C[C@H](O)[C@@]2(CO)O[C@@H]12`?
A: survivor count (dose: 10.0 mg/kg/injection, schedule: Q01DX009 (ip), vehicle: saline with Tween-80): 10 of 10; survivor count (dose: 20.0 mg/kg/injection, schedule: Q01DX009 (ip), vehicle: saline with Tween-80): 6 of 10; survivor count (dose: 40.0 mg/kg/injection, schedule: Q01DX009 (ip), vehicle: saline with Tween-80): 1 of 9

Q: What does the source list for `COC1C(O)CC(OC2CC(Oc3cc4cc5c(c(O)c4c(O)c3C)C(=O)[C@@H](OC3CC(OC4CC(OC6CC(C)(O)C(OC(C)=O)C(C)O6)C(O)C(C)O4)C(O)C(C)O3)[C@H]([C@H](OC)C(=O)[C@@H](O)[C@@H](C)O)C5)OC(C)C2OC(C)=O)OC1C` (some centres not stated)?
A: T/C (dose: 0.02 mg/kg/injection, schedule: Q01DX009 (ip), vehicle: Klucel (hydroxypropylcellulose) (HPC)): 141 % of control; survivor count (dose: 0.32 mg/kg/injection, schedule: Q01DX009 (ip), vehicle: Klucel (hydroxypropylcellulose) (HPC)): 4 of 10

Q: Which results are given for `COc1ccc(C[C@@H]2NC[C@@H](O)[C@@H]2OC(C)=O)cc1`?
A: T/C (dose: 25.0 mg/kg/injection, schedule: Q01DX009 (ip), vehicle: saline with Tween-80): 125 % of control; T/C (dose: 50.0 mg/kg/injection, schedule: Q01DX009 (ip), vehicle: saline with Tween-80): 135 % of control; T/C [7]: 125 [9 of 10 alive] and 136 % of control; survivor count [6]: 0 of 10 and 6 of 10; survivor count (dose: 400.0 mg/kg/injection, schedule: Q04DX003 (ip), vehicle: saline with Tween-80): 5 of 10

Q: `C=C1C(=O)[C@]23C[C@H]1CC[C@H]2[C@@]12CO[C@@H](O)[C@@H]1C(C)(C)[C@@H](O)C[C@@H]2OC3=O` was tested. Which survivor count [7] did it give?
A: 1 of 10

Q: And the survivor count (dose: 200.0 mg/kg/injection, schedule: Q01DX009 (ip), vehicle: saline with Tween-80)?
A: 2 of 10

Q: What about the survivor count [6] of the same compound?
A: 0 of 10

Q: With `CNC(=O)Oc1ccc[nH]c1=O` as the compound, how does the survivor count (dose: 512.0 mg/kg/injection, schedule: Q01DX009 (ip), vehicle: saline with Tween-80) read?
A: 6 of 10

Q: `O=C(NO)c1cc(O)c(O)c(O)c1` was tested. Which survivor count [1] did it give?
A: 9 of 10

Q: And the survivor count [2]?
A: 0 of 10

Q: Which results are given for `O=CC(S)CO` (configuration not stated)?
A: T/C (dose: 100.0 mg/kg/injection, schedule: Q01DX009 (ip), vehicle: saline): 127 % of control; survivor count [3]: 9 of 10; survivor count [4]: 3 of 10

Q: How did the survivor count (dose: 6.0 mg/kg/injection, schedule: Q01DX009 (ip), vehicle: DMSO) turn out when `O=C1c2ccccc2CCC1Br` (configuration not stated) was run?
A: 10 of 10

Q: What about the survivor count (dose: 25.0 mg/kg/injection, schedule: Q01DX009 (ip), vehicle: DMSO) of the same compound?
A: 7 of 7

Q: What about the survivor count (dose: 50.0 mg/kg/injection, schedule: Q01DX009 (ip), vehicle: DMSO) of the same compound?
A: 5 of 7

Q: What about the survivor count (dose: 100.0 mg/kg/injection, schedule: Q01DX009 (ip), vehicle: DMSO) of the same compound?
A: 0 of 7
